Assay results: article doi:10.1101/870899
Like-named read-outs stand apart in the source and are kept apart here. These are yes or no findings as the source states them, for the method shown. Binding seen in cells or lysates may run through a third protein. Some entries that bind do so weakly or less than the wild type. For some of these results: Tags and fused reporters may be left off the sequences shown.

Sequences of proteins named here, by UniProt entry; tags and fusion partners are left off. Residues count along the entry.
UniProt P17427, residues 701-938: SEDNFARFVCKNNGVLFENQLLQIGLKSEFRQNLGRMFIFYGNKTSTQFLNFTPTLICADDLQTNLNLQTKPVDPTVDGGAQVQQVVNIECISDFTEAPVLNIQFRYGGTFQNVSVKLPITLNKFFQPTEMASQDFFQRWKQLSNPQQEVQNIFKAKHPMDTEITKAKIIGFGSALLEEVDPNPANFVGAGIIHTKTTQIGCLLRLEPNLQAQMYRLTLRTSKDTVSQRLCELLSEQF
UniProt P62944, residues 701-937: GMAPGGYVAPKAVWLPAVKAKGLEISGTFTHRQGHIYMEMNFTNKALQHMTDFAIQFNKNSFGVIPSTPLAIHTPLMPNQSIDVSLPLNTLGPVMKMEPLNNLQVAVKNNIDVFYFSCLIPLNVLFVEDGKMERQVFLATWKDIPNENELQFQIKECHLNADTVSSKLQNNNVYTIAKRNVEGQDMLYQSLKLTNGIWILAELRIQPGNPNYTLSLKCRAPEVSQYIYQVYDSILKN

How the values were obtained:
Test in all cases: pull-down
[1] = target: GST-mouse αC appendage (701-938) (mouse) (UniProt P17427)
[2] = target: GST-rat β2 appendage (701-937) (rat) (UniProt P62944)
[3] = target: GST-mouse αC appendage (701-938) (mouse) (UniProt P17427); remark: listed apart in the source

| Molecule | binding [1] | binding [2] | binding [3] |
| --- | --- | --- | --- |
| BMP-2 inducible kinase (BMP2K), endogenous (from UniProt Q9NSY1 1-1161) (enzyme) | binds | binds | – |
| BMP2KΔCT-GFP (BMP2K 1-560) (from UniProt Q9NSY1 1-560) (domain or fragment) | no binding | – | – |
| BMP2KCT-GFP (BMP2K 561-1161) (domain or fragment, UniProt Q9NSY1 561-1161) SPEYLTSPQEFSPALVSYTSSLPAQVGTIMDSSYSANRSVADKEAIANFTNQKNISNPPDMSGWNPFGEDNFSKLTEEELLDREFDLLRSNRLEERASSDKNVDSLSAPHNHPPEDPFGSVPFISHSGSPEKKAEHSSINQENGTANPIKNGKTSPASKDQRTGKKTSVQGQVQKGNDESESDFESDPPSPKSSEEEEQDDEEVLQGEQGDFNDDDTEPENLGHRPLLMDSEDEEEEEKHSSDSDYEQAKAKYSDMSSVYRDRSGSGPTQDLNTILLTSAQLSSDVAVETPKQEFDVFGAVPFFAVRAQQPQQEKNEKNLPQHRFPAAGLEQEEFDVFTKAPFSKKVNVQECHAVGPEAHTIPGYPKSVDVFGSTPFQPFLTSTSKSESNEDLFGLVPFDEITGSQQQKVKQRSLQKLSSRQRRTKQDMSKSNGKRHHGTPTSTKKTLKPTYRTPERARRHKKVGRRDSQSSNEFLTISDSKENISVALTDGKDRGNVLQPEESLLDPFGAKPFHSPDLSWHPPHQGLSDIRADHNTVLPGRPRQNSLHGSFHSADVLKMDDFGAVPFTELVVQSITPHQSQQSQPVELDPFGAAPFPSKQ | – | – | binds |
